In this experiment the test system is ruminal organisms.

For the compound `CCNc1ccc(C(=O)O)cc1` [4-(ethylamino)benzoate], the “acetate level relative to controls” value is given as “elevated” and the “propionate level relative to controls” value is reported as “elevated”.
